Taken from: PubChem BioAssay AID1259283 (Sanger Institute, 2017)

Assay: 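Kinases whose silencing adds to targeted drugs in killing colon cancer cells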 (primary screen)
Cells: HT115 colorectal cancer cells
Reagent: siRNA pool against human genes
Treatment: anchor drug given one day after siRNA: BYL719 at 1 µM, cetuximab at 5 µg/ml, trametinib at 10 nM, or DMSO vehicle alone
Measurement: 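Viability normalised to non-targeting pool #2 wells and averaged over replicates, robust z-score against control wells, and a synergy score for each of three drugs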
Reading the numbers: robust z-score, knock-down alone: higher = more viable cells after knock-down
Rule for the call: 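Essential gene: robust z-score less than -3 with no drug added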
Calls: active = essential (z below -3, no drug); inactive = no change without drug
Here is one part, drawn at random, of 794 reagents. 14 of them (1.8%) were called active. 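Calls reflect only viability loss without drug; drug synergy does not enter the call.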 Unmarked entries are inactive. Further read-outs or replicates are left out here. Reagent sequences are not shown. Not stated in the record: the amount of reagent, the time to read-out.

Against FES the deposit lists robust z-score, knock-down alone 0.188.
CDC42BPB showed robust z-score, knock-down alone 0.213.
After knock-down of DAPK3, the record shows robust z-score, knock-down alone -0.497.
For SMG1 the deposit lists robust z-score, knock-down alone -3.43 (active).
For CDK16, the values are robust z-score, knock-down alone -0.387.
Silencing of PIK3C3 resulted in: robust z-score, knock-down alone 0.694.
After knock-down of KHK, the screen gave robust z-score, knock-down alone 0.789.
With knock-down of NEK4, the screen gave robust z-score, knock-down alone 0.789.
Depletion of PNCK came out at: robust z-score, knock-down alone 0.789.
Against TEK the deposit lists robust z-score, knock-down alone 0.75.
CHUK showed robust z-score, knock-down alone 0.44.
Silencing of LCK came out at: robust z-score, knock-down alone 0.789.
Knock-down of BCKDK came out at: robust z-score, knock-down alone 0.789.
For PI4KA, the values are robust z-score, knock-down alone 0.789.
For HIPK1, the entry reads robust z-score, knock-down alone 0.789.
With knock-down of MAP3K11 the results were robust z-score, knock-down alone 0.789.
For MAP3K13, the entry reads robust z-score, knock-down alone -0.0783.
For DLG1 the deposit lists robust z-score, knock-down alone -1.03.
Knock-down of ADGRL2 came out at: robust z-score, knock-down alone 0.789.
Knock-down of TESK1 resulted in: robust z-score, knock-down alone -0.731.
Silencing of PRKCSH gave: robust z-score, knock-down alone 0.41.
Depletion of WHR1 resulted in: robust z-score, knock-down alone 0.75.
Against CSNK1D, the values are robust z-score, knock-down alone 0.409.
PRKD1 showed robust z-score, knock-down alone 0.789.
Depletion of GRK5 came out at: robust z-score, knock-down alone 0.789.
DYRK2 showed robust z-score, knock-down alone -0.321.
PI4KB showed robust z-score, knock-down alone 0.789.
Against PIK3R2 the deposit lists robust z-score, knock-down alone -0.0523.
With knock-down of PRKCG, the record shows robust z-score, knock-down alone 0.789.
Knock-down of CASK gave: robust z-score, knock-down alone -0.0244.
Against NRBP2, the entry reads robust z-score, knock-down alone -1.01.
With knock-down of CASP8 the results were robust z-score, knock-down alone 0.789.
MAPKAPK3 gave robust z-score, knock-down alone -1.57.
PRKCD gave robust z-score, knock-down alone 0.0517.
For KMT2B the deposit lists robust z-score, knock-down alone 0.789.
After knock-down of TRIM27, the screen gave robust z-score, knock-down alone 0.789.

Sorted by “robust z-score, knock-down alone” (ascending): 5 of the entries above.
DYRK2: robust z-score, knock-down alone = -0.321
CSNK1D: robust z-score, knock-down alone = 0.409
WHR1: robust z-score, knock-down alone = 0.75
PRKD1: robust z-score, knock-down alone = 0.789
GRK5: robust z-score, knock-down alone = 0.789
